Some entries share one result that the patent states for a list of compounds.
molecular target: T1, GPR38 receptor (Homo sapiens, UniProt O43193); experiment: GPR38 FLIPR functional agonist assay; assay type: cell-based; details: CHO-K1 cells stably expressing the GPR38 receptor; Fluo 4 calcium fluorescence; agonist response
T1 construct: expressed in transfected cells; host or cells: CHO-K1

Chains of the proteins cited; added tags and fusions are not shown. Lines headed by an entry give the natural chain unless they say otherwise; changes in a name come on top.
UniProt O43193: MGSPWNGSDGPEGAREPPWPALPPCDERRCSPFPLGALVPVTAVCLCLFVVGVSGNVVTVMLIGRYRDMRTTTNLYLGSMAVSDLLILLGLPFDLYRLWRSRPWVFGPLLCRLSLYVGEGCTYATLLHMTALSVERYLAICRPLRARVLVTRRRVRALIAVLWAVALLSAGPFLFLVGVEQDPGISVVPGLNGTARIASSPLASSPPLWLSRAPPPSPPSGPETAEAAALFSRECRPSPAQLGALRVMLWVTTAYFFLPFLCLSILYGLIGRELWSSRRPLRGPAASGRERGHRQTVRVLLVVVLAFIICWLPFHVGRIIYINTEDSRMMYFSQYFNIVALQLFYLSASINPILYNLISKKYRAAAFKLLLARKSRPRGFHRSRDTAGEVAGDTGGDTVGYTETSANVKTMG

| SMILES | pEC50 in the FLIPR assay |
| --- | --- |
| C[C@H]1CN(Cc2ccc(N(C)C(=O)N3CCC(Nc4cccc(F)c4)CC3)cc2)CCN1 [Example 1, 4-[(3-Fluorophenyl)amino]-N-methyl-N-(4-{[(3S)-3-methyl-1-piperazinyl]methyl}phenyl)-1-piperidinecarboxamide] | ≥ 6.4 |
| C[C@H]1CN(Cc2ccc(N(C)C(=O)N3CCC(Nc4ccc(F)cc4)CC3)cc2)CCN1 [Example 2, 4-[(4-fluorophenyl)amino]-N-methyl-N-(4-{[(3S)-3-methyl-1-piperazinyl]methyl}phenyl)-1-piperidinecarboxamide] | ≥ 6.4 |
| C[C@H]1CN(Cc2ccc(N(C)C(=O)N3CCC(Nc4ccccc4F)CC3)cc2)CCN1 [Example 4, 4-[(2-fluorophenyl)amino]-N-methyl-N-(4-{[(3S)-3-methyl-1-piperazinyl]methyl}phenyl)-1-piperidinecarboxamide] | ≥ 6.4 |
| C[C@@H]1CN(Cc2ccc(N(C)C(=O)N3CCC(Nc4cccc(F)c4)CC3)cc2)CCN1 [Example 11, 4-[(3-fluorophenyl)amino]-N-methyl-N-(4-{[(3R)-3-methyl-1-piperazinyl]methyl}phenyl)-1-piperidinecarboxamide] | ≥ 6.4 |
| C[C@@H]1CN(Cc2ccc(N(C)C(=O)N3CCC(Nc4cccc(F)c4)CC3)cc2)C[C@H](C)N1 [Example 12, N-(4-{[(3R,5S)-3,5-dimethyl-1-piperazinyl]methyl}phenyl)-4-[(3-fluorophenyl)amino]-N-methyl-1-piperidinecarboxamide] | ≥ 6.4 |
| CN(C(=O)N1CCC(Nc2cccc(F)c2)CC1)c1ccc(CN2CCNCC2)cc1 [Example 14, 4-[(3-fluorophenyl)amino]-N-methyl-N-[4-(1-piperazinylmethyl)phenyl]-1-piperidinecarboxamide] | ≥ 6.4 |
| CN(C(=O)N1CCC(Nc2ccc(F)cc2)CC1)c1ccc(CN2CCNCC2)cc1 [Example 15, 4-[(4-fluorophenyl)amino]-N-methyl-N-[4-(1-piperazinylmethyl)phenyl]-1-piperidinecarboxamide] | ≥ 6.4 |
| Cc1cc(N(C)C(=O)N2CCC(Nc3cccc(F)c3)CC2)ccc1CN1CCN[C@@H](C)C1 [Example 19, 4-[(3-Fluorophenyl)amino]-N-methyl-N-(3-methyl-4-{[(3S)-3-methyl-1-piperazinyl]methyl}phenyl)-1-piperidinecarboxamide] | ≥ 6.4 |
| C[C@H]1CN(Cc2ccc(N(C)C(=O)N3CCC(Nc4cccc(F)c4)CC3)cn2)CCN1 [Example 20, 4-[(3-Fluorophenyl)amino]N-methyl-N-(6-{[(3S)-3-methyl-1-piperazinyl]methyl}-3-pyridinyl)-1-piperidinecarboxamide] | ≥ 6.4 |
